# According to PMC2360413:
# The chains behind the UniProt entries cited, without tags or fusion partners. Residues count along the entry.
# UniProt P38646, residues 47-679: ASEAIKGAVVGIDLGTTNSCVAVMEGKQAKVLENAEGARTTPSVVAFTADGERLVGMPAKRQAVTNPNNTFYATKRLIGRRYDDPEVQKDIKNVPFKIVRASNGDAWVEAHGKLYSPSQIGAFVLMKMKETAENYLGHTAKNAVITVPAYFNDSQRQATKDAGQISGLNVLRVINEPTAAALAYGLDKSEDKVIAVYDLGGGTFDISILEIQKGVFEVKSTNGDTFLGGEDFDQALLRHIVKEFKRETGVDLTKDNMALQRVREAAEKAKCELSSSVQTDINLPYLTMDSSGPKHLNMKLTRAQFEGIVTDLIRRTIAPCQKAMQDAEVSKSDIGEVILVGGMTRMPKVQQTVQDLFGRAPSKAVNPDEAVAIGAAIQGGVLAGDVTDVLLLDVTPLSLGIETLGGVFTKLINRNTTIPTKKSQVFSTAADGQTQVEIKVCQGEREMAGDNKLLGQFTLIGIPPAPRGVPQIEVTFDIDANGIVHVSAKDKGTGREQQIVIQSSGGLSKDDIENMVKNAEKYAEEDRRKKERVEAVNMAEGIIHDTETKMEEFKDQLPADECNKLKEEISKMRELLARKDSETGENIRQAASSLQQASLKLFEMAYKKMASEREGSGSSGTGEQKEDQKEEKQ
# UniProt P21926: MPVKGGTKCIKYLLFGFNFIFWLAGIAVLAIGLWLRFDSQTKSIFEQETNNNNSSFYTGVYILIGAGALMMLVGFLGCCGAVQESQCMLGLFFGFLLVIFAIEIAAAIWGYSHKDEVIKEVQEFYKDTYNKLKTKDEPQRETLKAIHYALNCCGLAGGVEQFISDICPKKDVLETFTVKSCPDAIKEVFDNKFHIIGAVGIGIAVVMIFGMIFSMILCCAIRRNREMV
# No constants are given. Whether binding was seen depends on the method and setting. In cells and extracts the contact can be indirect. Some entries that bind do so weakly or less than the wild type.
# Key:
# [1] = target: HSPA9B protein, also known as mortalin (human (endogenous in PC-3 and PC-3M-LN4)) (UniProt P38646); assay: co-IP; 1% Brij 97 lysate immunoprecipitated with mortalin mAb, blot with CD9 mAb
# [2] = target: Cluster-of-differentiation antigen 9 (CD9) (human (endogenous in PC-3 and PC-3M-LN4)) (UniProt P21926); assay: co-IP; 1% Brij 97 lysates of PC-3, PC-3M-LN4 and PC-3M-LN4CD9-40 cells immunoprecipitated with CD9 mAb (or mouse IgG), blot with mortalin mAb
# [3] = target: exogenous wild-type CD9 (pcDNA3.1/Myc-HisA-CD9 wild-type construct) (UniProt P21926); assay: as above
substance,measurement,setting,value
Cluster-of-differentiation antigen 9 (CD9) (from UniProt P21926 1-228),binding,[1],binds
"HSPA9B protein, also known as mortalin (from UniProt P38646 47-679)",binding,[2],binds
same,binding,[3],binds
